# Data taken from PubChem BioAssay AID188 (DTP/NCI, 2004).
# Values are animals surviving of animals treated; these mice carried no tumour. Survivors were counted at the toxicity check, usually on the fifth day, unless a day is given; later deaths do not show. Schedules are NCI's codes, read here as Q, the interval in days (D) or hours (H), X, the number of doses. Some entries were tested several times; their values stand side by side, smallest first.
# System: CD2F1 mice, nontumored, toxicity/survival
# Test: NCI In Vivo Anticancer Drug Screen. Data for tumor model Nontumored Animals (Toxicity Test) in CD2F1 (CDF1) mice
# [1] = dose: 1.0 mg/kg/injection, schedule: Q01DX001 (ip), vehicle: saline with Tween-80
# [2] = dose: 10.0 mg/kg/injection, schedule: Q01DX001 (ip), vehicle: saline with Tween-80
# [3] = dose: 100.0 mg/kg/injection, schedule: Q01DX001 (ip), vehicle: saline with Tween-80
# [4] = dose: 4.0 mg/kg/injection, schedule: Q03HX008 (ip), vehicle: saline
# [5] = dose: 4.0 mg/kg/injection, schedule: Q03HX016 (ip), vehicle: saline
# [6] = dose: 4.0 mg/kg/injection, schedule: Q03HX024 (ip), vehicle: saline
# [7] = dose: 8.0 mg/kg/injection, schedule: Q03HX008 (ip), vehicle: saline
# [8] = dose: 8.0 mg/kg/injection, schedule: Q03HX016 (ip), vehicle: saline
# [9] = dose: 8.0 mg/kg/injection, schedule: Q03HX024 (ip), vehicle: saline
# [10] = dose: 16.0 mg/kg/injection, schedule: Q01DX009 (ip), vehicle: saline
# [11] = dose: 16.0 mg/kg/injection, schedule: Q03HX008 (ip), vehicle: saline
# [12] = dose: 16.0 mg/kg/injection, schedule: Q03HX016 (ip), vehicle: saline
# [13] = dose: 32.0 mg/kg/injection, schedule: Q01DX001 (ip), vehicle: saline
# [14] = dose: 32.0 mg/kg/injection, schedule: Q01DX009 (ip), vehicle: saline
# [15] = dose: 32.0 mg/kg/injection, schedule: Q03HX008 (ip), vehicle: saline
# [16] = dose: 32.0 mg/kg/injection, schedule: Q04DX003 (ip), vehicle: saline
# [17] = dose: 32.0 mg/kg/injection, schedule: Q08DX002 (ip), vehicle: saline
# [18] = dose: 64.0 mg/kg/injection, schedule: Q01DX001 (ip), vehicle: saline
# [19] = dose: 64.0 mg/kg/injection, schedule: Q04DX003 (ip), vehicle: saline
# [20] = dose: 64.0 mg/kg/injection, schedule: Q08DX002 (ip), vehicle: saline
# [21] = dose: 128.0 mg/kg/injection, schedule: Q01DX001 (ip), vehicle: saline
# [22] = dose: 128.0 mg/kg/injection, schedule: Q04DX003 (ip), vehicle: saline
# [23] = dose: 128.0 mg/kg/injection, schedule: Q08DX002 (ip), vehicle: saline
# [24] = dose: 256.0 mg/kg/injection, schedule: Q01DX001 (ip), vehicle: saline
compound,measurement,setting,value
CN(C)/N=N/c1nc[nH]c1C(N)=O,survivor count,"dose: 39.0 mg/kg/injection, schedule: Q01DX009 (ip), vehicle: Klucel (hydroxypropylcellulose) (HPC)",10 of 10
same,survivor count,"dose: 50.0 mg/kg/injection, schedule: Q02DX005 (ip), vehicle: Klucel (hydroxypropylcellulose) (HPC)",4 of 4
same,survivor count,"dose: 59.0 mg/kg/injection, schedule: Q01DX009 (ip), vehicle: Klucel (hydroxypropylcellulose) (HPC)",10 of 10
same,survivor count,"dose: 89.0 mg/kg/injection, schedule: Q01DX009 (ip), vehicle: Klucel (hydroxypropylcellulose) (HPC)",10 of 10
same,survivor count,"dose: 100.0 mg/kg/injection, schedule: Q02DX005 (ip), vehicle: Klucel (hydroxypropylcellulose) (HPC)",4 of 4
same,survivor count,"dose: 133.0 mg/kg/injection, schedule: Q01DX009 (ip), vehicle: Klucel (hydroxypropylcellulose) (HPC)",10 of 10
same,survivor count,"dose: 200.0 mg/kg/injection, schedule: Q01DX009 (ip), vehicle: Klucel (hydroxypropylcellulose) (HPC)",10 of 10
same,survivor count,"dose: 200.0 mg/kg/injection, schedule: Q02DX005 (ip), vehicle: Klucel (hydroxypropylcellulose) (HPC)",4 of 4
same,survivor count,"dose: 400.0 mg/kg/injection, schedule: Q02DX005 (ip), vehicle: Klucel (hydroxypropylcellulose) (HPC)",4 of 4
CCOP(=O)(N(CCCl)CCCl)N1CCc2ccccc2C1 (stereo not drawn),survivor count,[1],2 of 2
same,survivor count,[2],2 of 2
same,survivor count,[3],2 of 2
NC(Cc1cc(I)c(Oc2cc(I)c(O)c(I)c2)c(I)c1)C(=O)O (stereo not drawn),survivor count,"dose: 0.63 mg/kg/injection, schedule: Q01DX009 (ip), vehicle: saline",2 of 3 and 4 of 4
same,survivor count,"dose: 2.5 mg/kg/injection, schedule: Q01DX009 (ip), vehicle: saline",2 of 3 and 4 of 4
same,survivor count,"dose: 10.0 mg/kg/injection, schedule: Q01DX009 (ip), vehicle: saline",0 of 2 and 4 of 4
same,survivor count,"dose: 40.0 mg/kg/injection, schedule: Q01DX009 (ip), vehicle: saline",4 of 4
Cc1c(N)nc([C@H](CC(N)=O)NC[C@H](N)C(N)=O)nc1C(=O)N[C@H](C(=O)N[C@H](C)[C@@H](O)[C@H](C)C(=O)N[C@H](C(=O)NCCc1nc(-c2nc(C(=O)NCCC[S+](C)C)cs2)cs1)[C@@H](C)O)C(OC1OC(CO)C(O)C(O)C1OC1OC(CO)C(O)C(OC(N)=O)C1O)c1cnc[nH]1 (stereo partly drawn),survivor count,"dose: 0.5 mg/kg/injection, schedule: Q03HX024 (ip), vehicle: saline",8 of 8
same,survivor count,"dose: 1.0 mg/kg/injection, schedule: Q03HX016 (ip), vehicle: saline",5 of 8
same,survivor count,"dose: 1.0 mg/kg/injection, schedule: Q03HX024 (ip), vehicle: saline",8 of 8
same,survivor count,"dose: 2.0 mg/kg/injection, schedule: Q01DX009 (ip), vehicle: saline",8 of 8
same,survivor count,"dose: 2.0 mg/kg/injection, schedule: Q03HX008 (ip), vehicle: saline",8 of 8
same,survivor count,"dose: 2.0 mg/kg/injection, schedule: Q03HX016 (ip), vehicle: saline",8 of 8
same,survivor count,"dose: 2.0 mg/kg/injection, schedule: Q03HX024 (ip), vehicle: saline",7 of 8
same,survivor count,"dose: 4.0 mg/kg/injection, schedule: Q01DX009 (ip), vehicle: saline",4 of 4 and 8 of 8
same,survivor count,[4],8 of 8
same,survivor count,[5],8 of 8
same,survivor count,[6],8 of 8
same,survivor count,"dose: 8.0 mg/kg/injection, schedule: Q01DX009 (ip), vehicle: saline",4 of 4 and 8 of 8
same,survivor count,[7],8 of 8
same,survivor count,[8],7 of 8
same,survivor count,[9],6 of 8
same,survivor count,"dose: 8.0 mg/kg/injection, schedule: Q04DX003 (ip), vehicle: saline",8 of 8
same,survivor count,"dose: 8.0 mg/kg/injection, schedule: Q08DX002 (ip), vehicle: saline",8 of 8
same,survivor count,"dose: 16.0 mg/kg/injection, schedule: Q01DX001 (ip), vehicle: saline",8 of 8
same,survivor count,[10],4 of 4 and 8 of 8
same,survivor count,[11],8 of 8
same,survivor count,[12],7 of 8
same,survivor count,"dose: 16.0 mg/kg/injection, schedule: Q04DX003 (ip), vehicle: saline",8 of 8
same,survivor count,"dose: 16.0 mg/kg/injection, schedule: Q08DX002 (ip), vehicle: saline",8 of 8
same,survivor count,[13],8 of 8
same,survivor count,[14],4 of 4 and 8 of 8
same,survivor count,[15],7 of 8
same,survivor count,[16],8 of 8
same,survivor count,[17],8 of 8
same,survivor count,[18],8 of 8
same,survivor count,[19],8 of 8
same,survivor count,[20],8 of 8
same,survivor count,[21],7 of 8
same,survivor count,[22],8 of 8
same,survivor count,[23],8 of 8
same,survivor count,[24],8 of 8
CCN(CC)CCNc1ccc(CO)c2sc3ccccc3c(=O)c12,survivor count,[4],8 of 8
same,survivor count,[5],8 of 8
same,survivor count,[6],8 of 8
same,survivor count,[7],8 of 8
same,survivor count,[8],8 of 8
same,survivor count,[9],8 of 8
same,survivor count,[10],8 of 8
same,survivor count,"dose: 16.0 mg/kg/injection, schedule: Q01DX009 (sc), vehicle: saline",8 of 8
same,survivor count,[11],8 of 8
same,survivor count,[12],8 of 8
same,survivor count,"dose: 16.0 mg/kg/injection, schedule: Q03HX024 (ip), vehicle: saline",8 of 8
same,survivor count,[13],8 of 8
same,survivor count,"dose: 32.0 mg/kg/injection, schedule: Q01DX001 (sc), vehicle: saline",8 of 8
same,survivor count,[14],8 of 8
same,survivor count,"dose: 32.0 mg/kg/injection, schedule: Q01DX009 (sc), vehicle: saline",8 of 8
same,survivor count,[15],8 of 8
same,survivor count,"dose: 32.0 mg/kg/injection, schedule: Q03HX016 (ip), vehicle: saline",7 of 8
same,survivor count,"dose: 32.0 mg/kg/injection, schedule: Q03HX024 (ip), vehicle: saline",8 of 8
same,survivor count,[16],8 of 8
same,survivor count,[17],8 of 8
same,survivor count,[18],8 of 8
same,survivor count,"dose: 64.0 mg/kg/injection, schedule: Q01DX001 (sc), vehicle: saline",8 of 8
same,survivor count,"dose: 64.0 mg/kg/injection, schedule: Q01DX009 (ip), vehicle: saline",7 of 8
same,survivor count,"dose: 64.0 mg/kg/injection, schedule: Q01DX009 (oral), vehicle: saline",8 of 8
same,survivor count,"dose: 64.0 mg/kg/injection, schedule: Q01DX009 (sc), vehicle: saline",8 of 8
same,survivor count,"dose: 64.0 mg/kg/injection, schedule: Q03HX008 (ip), vehicle: saline",8 of 8
same,survivor count,"dose: 64.0 mg/kg/injection, schedule: Q03HX016 (ip), vehicle: saline",8 of 8
same,survivor count,"dose: 64.0 mg/kg/injection, schedule: Q03HX024 (ip), vehicle: saline",7 of 8
same,survivor count,[19],8 of 8
same,survivor count,[20],8 of 8
same,survivor count,[21],8 of 8
same,survivor count,"dose: 128.0 mg/kg/injection, schedule: Q01DX001 (sc), vehicle: saline",8 of 8
same,survivor count,"dose: 128.0 mg/kg/injection, schedule: Q01DX009 (ip), vehicle: saline",8 of 8
same,survivor count,"dose: 128.0 mg/kg/injection, schedule: Q01DX009 (oral), vehicle: saline",8 of 8
same,survivor count,"dose: 128.0 mg/kg/injection, schedule: Q01DX009 (sc), vehicle: saline",8 of 8
same,survivor count,[22],8 of 8
same,survivor count,[23],8 of 8
same,survivor count,[24],8 of 8
same,survivor count,"dose: 256.0 mg/kg/injection, schedule: Q01DX001 (oral), vehicle: saline",8 of 8
same,survivor count,"dose: 256.0 mg/kg/injection, schedule: Q01DX001 (sc), vehicle: saline",8 of 8
same,survivor count,"dose: 256.0 mg/kg/injection, schedule: Q01DX009 (ip), vehicle: saline",0 of 8
same,survivor count,"dose: 256.0 mg/kg/injection, schedule: Q01DX009 (oral), vehicle: saline",7 of 8
same,survivor count,"dose: 256.0 mg/kg/injection, schedule: Q01DX009 (sc), vehicle: saline",1 of 8
same,survivor count,"dose: 256.0 mg/kg/injection, schedule: Q04DX003 (ip), vehicle: saline",5 of 8
same,survivor count,"dose: 256.0 mg/kg/injection, schedule: Q08DX002 (ip), vehicle: saline",7 of 8
same,survivor count,"dose: 512.0 mg/kg/injection, schedule: Q01DX001 (ip), vehicle: saline",0 of 8
same,survivor count,"dose: 512.0 mg/kg/injection, schedule: Q01DX001 (oral), vehicle: saline",7 of 8
same,survivor count,"dose: 512.0 mg/kg/injection, schedule: Q01DX001 (sc), vehicle: saline",8 of 8
same,survivor count,"dose: 512.0 mg/kg/injection, schedule: Q01DX009 (oral), vehicle: saline",3 of 8
same,survivor count,"dose: 512.0 mg/kg/injection, schedule: Q04DX003 (ip), vehicle: saline",0 of 8
same,survivor count,"dose: 512.0 mg/kg/injection, schedule: Q08DX002 (ip), vehicle: saline",0 of 8
same,survivor count,"dose: 1024.0 mg/kg/injection, schedule: Q01DX001 (oral), vehicle: saline",8 of 8
same,survivor count,"dose: 1024.0 mg/kg/injection, schedule: Q01DX009 (oral), vehicle: saline",0 of 8
same,survivor count,"dose: 2048.0 mg/kg/injection, schedule: Q01DX001 (oral), vehicle: saline",4 of 8
Nc1ccc(-c2c(N)ncc3ccccc23)cc1,survivor count,[1],2 of 2
same,survivor count,[2],2 of 2
same,survivor count,[3],2 of 2
